The nature of this data set: general procedure: solution-phase peptide synthesis; DCC/HOBT. Particulars: coupling step.

The record followed here is patent US5024994A (Warner-Lambert Company, priority 1988, dated 1991).

Strings that start with PEPTIDE1 are HELM notation: dots part the residues, brackets hold end groups and non-standard residues.

On to “PEPTIDE1{[BOC].F.[ARG(NO2)].[STA].L.[NHCH2Ph]}$$$$V2.0”, for which the step yield is 82%.
